The supplement of paper PMC3682954
Where “and” joins values, the source holds several entries; their conditions need not be identical. Equal entries are not always repeated. Structures can show the parent of a compound that is named as a salt. ± gives the standard deviation of the averaged measurements. Some of the results follow. Repeats are few or missing, and single values can be far off.

System: RAW 264.7
Assay: cell viability (MTT) relative to vehicle control; higher = more viable cells
Conditions: stimulus: HMGB1 5 ug/ml, 18 h
[1] = compound concentration: 1 ug/ml

`C=C1/C(=C\C=C2/CCC[C@]3(C)[C@@H]([C@H](C)/C=C/[C@@H](O)C4CC4)CC[C@@H]23)C[C@@H](O)C[C@@H]1O` [Calcipotriene] was tested, and the cell viability (compound concentration: 3 uM) was 115 ± 3.1%.
`C=C1/C(=C\C=C2/CCC[C@]3(C)[C@@H]([C@H](C)/C=C/[C@@H](O)C4CC4)CC[C@@H]23)C[C@@H](O)C[C@@H]1O` was tested, and the cell viability (compound concentration: 3 uM) was 103%.
Work on `COC(=O)Nc1nc2ccc(SC(C)C)cc2[nH]1` [Methiazole] yielded a cell viability (compound concentration: 3 uM) of 77.4%.
Work on `COC(=O)C1=C(C)NC(C)=C(C(=O)OCCCN2CCC(c3ccccc3)(c3ccccc3)CC2)[C@H]1c1cccc([N+](=O)[O-])c1` [Niguldipine] yielded a cell viability (compound concentration: 3 uM) of 104%.
With `CCCCNc1ccc(C(=O)OCCOCCOCCOCCOCCOCCOCCOCCOCCOC)cc1` [Benzonatate] the cell viability (compound concentration: 3 uM) was 107%.
`COCCOC(=O)C1=C(C)NC(C)=C(C(=O)OC/C=C/c2ccccc2)C1c1cccc([N+](=O)[O-])c1` (stereo unspecified) [Cilnidipine] gave a cell viability (compound concentration: 3 uM) of 107 ± 7.6%.
Work on `Cc1cc(/C=C/c2ccc3cc(N(C)C)ccc3[n+]2C)c(C)n1-c1ccccc1` yielded a cell viability (compound concentration: 3 uM) of 37.4%.
`Cc1cc(/C=C/c2ccc3cc(N(C)C)ccc3[n+]2C)c(C)n1-c1ccccc1` [Pyrvinium pamoate] gave a cell viability (compound concentration: 3 uM) of 2.25%.
`CCn1nc(C(=O)O)c(=O)c2cc3c(cc21)OCO3` [Cinoxacin] was tested, and the cell viability [1] was 105% and the cell viability (compound concentration: 3 uM) was 113 ± 10%.
`CCn1nc(C(=O)O)c(=O)c2cc3c(cc21)OCO3` was tested, and the cell viability (compound concentration: 3 uM) was 105%.
`O=c1c(-c2ccc(O)cc2)coc2c([C@@H]3O[C@H](CO)[C@@H](O)[C@H](O)[C@H]3O)c(O)ccc12` [Puerarin] was tested, and the cell viability [1] was 108%.
With `C[C@H]1CC2C3CCC4=CC(=O)C=C[C@]4(C)[C@@]3(F)[C@@H](O)C[C@]2(C)[C@@]1(O)C(=O)COP(=O)(O)O` (stereo partly specified) the cell viability (compound concentration: 3 uM) was 122%.
`CCCc1nc(C)c2c(=O)nc(-c3cc(S(=O)(=O)N4CCN(CC)CC4)ccc3OCC)[nH]n12` [Vardenafil] showed a cell viability (compound concentration: 3 uM) of 102 ± 5.7%.
With `CCCc1nc(C)c2c(=O)nc(-c3cc(S(=O)(=O)N4CCN(CC)CC4)ccc3OCC)[nH]n12` the cell viability (compound concentration: 3 uM) was 98.8%.
`COC(=O)CC[C@@H](C)[C@H]1CC[C@H]2[C@@H]3CC[C@@H]4C[C@H](O)CC[C@]4(C)[C@H]3C[C@H](O)[C@]12C` [Deoxycholic acid methyl ester] gave a cell viability [1] of 96.5%.
For `O=C(O)/C=C/c1ccc(Cn2ccnc2)cc1`, the cell viability (compound concentration: 3 uM) was 97.4% and 101%.
In the case of `O=C(O)/C=C/c1ccc(Cn2ccnc2)cc1` [Ozagrel], the cell viability (compound concentration: 3 uM) is reported as 101%.
Work on `O=C(O)/C=C/c1ccc(Cn2ccnc2)cc1` [Ozagrel hydrochloride] yielded a cell viability (compound concentration: 3 uM) of 99.3%.
In the case of `CN1CCN(c2nc3cc(C(F)(F)F)ccc3n3cccc23)CC1`, the cell viability (compound concentration: 3 uM) is reported as 107% and 100%.
`CNC(C)C1CCC(N)C(OC2C(N)CC(N)C(OC3OCC(C)(O)C(NC)C3O)C2O)O1` (stereo unspecified) [Gentamycin] showed a cell viability (compound concentration: 3 uM) of 105%.
For `O=c1cc(-c2cccc(O)c2)oc2cc(O)ccc12`, the cell viability [1] was 100%.
Work on `CCn1ccnc1CC1COc2ccccc2O1` (stereo unspecified) [Imiloxan hydrochloride] yielded a cell viability (compound concentration: 3 uM) of 95.1%.
`O=c1cc(-c2ccccc2O)oc2c1ccc1ccccc12` showed a cell viability [1] of 91.5%.
`Cc1cc(C)c(/C=C2\C(=O)Nc3ccccc32)[nH]1` showed a cell viability (compound concentration: 3 uM) of 114%.
`CC[C@H]1OC(=O)[C@H](C)[C@@H](O[C@H]2C[C@@](C)(OC)[C@@H](O)[C@H](C)O2)[C@H](C)[C@@H](O[C@@H]2O[C@H](C)C[C@H](N(C)C)[C@H]2O)[C@](C)(O)C[C@@H](C)[C@@H]2N[C@@H](COCCOC)O[C@H]([C@H]2C)[C@]1(C)O` was tested, and the cell viability (compound concentration: 3 uM) was 107%.
For `CC[C@H]1OC(=O)[C@H](C)[C@@H](O[C@H]2C[C@@](C)(OC)[C@@H](O)[C@H](C)O2)[C@H](C)[C@@H](O[C@@H]2O[C@H](C)C[C@H](N(C)C)[C@H]2O)[C@](C)(O)C[C@@H](C)[C@@H]2N[C@@H](COCCOC)O[C@H]([C@H]2C)[C@]1(C)O` [Dirithromycin], the cell viability (compound concentration: 3 uM) was 82.5%.
Compound `O=C1CC2(CCCC2)CC(=O)N1CCCCN1CCN(c2ncccn2)CC1` [Buspirone] has a cell viability (compound concentration: 3 uM) of 95.9%.
Compound `O=C1CC2(CCCC2)CC(=O)N1CCCCN1CCN(c2ncccn2)CC1` [Buspirone hydrochloride] has a cell viability (compound concentration: 3 uM) of 94.6 ± 1.9%.
For `O=C1CC2(CCCC2)CC(=O)N1CCCCN1CCN(c2ncccn2)CC1`, the cell viability (compound concentration: 3 uM) was 95.5%.
Compound `CC(C)CC(=O)N[C@H](C(=O)N[C@H](C(=O)N[C@@H](CC(C)C)[C@@H](O)CC(=O)N[C@@H](C)C(=O)N[C@@H](CC(C)C)[C@@H](O)CC(=O)O)C(C)C)C(C)C` [Pepstatin A] has a cell viability (compound concentration: 3 uM) of 112%.
`O=c1cc[nH]c(=S)[nH]1` [2-Thiouracile] gave a cell viability [1] of 99.6%.
For `O=c1cc[nH]c(=S)[nH]1`, the cell viability (compound concentration: 3 uM) was 108%.
With `C[C@H](O)C(=O)Nc1c(I)c(C(=O)NC(CO)CO)c(I)c(C(=O)NC(CO)CO)c1I` [Iopamidol] the cell viability (compound concentration: 3 uM) was 77.9%.
Work on `COc1ccc2c(c1)C(=O)CC(c1cccc(OC)c1OC)O2` (stereo unspecified) [2',3',6-Trimethoxyflavanone] yielded a cell viability [1] of 98.5%.
In the case of `N[C@H](C(=O)O)c1cc(O)cc(O)c1` [(S)-3,5-Dihydroxyphenylglycine], the cell viability (compound concentration: 3 uM) is reported as 110%.
Work on `Cc1cccc(C#Cc2ccccc2)n1` [6-Methyl-2-(phenylethynyl)pyridine hydrochloride] yielded a cell viability (compound concentration: 3 uM) of 112%.
Compound `c1ccc(C(NCc2cccnc2)(c2ccccc2)c2ccccc2)cc1` has a cell viability (compound concentration: 3 uM) of 89.3%.
In the case of `C=CCN1CCc2c(cc(O)c(O)c2Br)[C@@H](c2ccccc2)C1` [R(+)-6-Bromo-APB hydrobromide], the cell viability (compound concentration: 3 uM) is reported as 83.1%.
Compound `COc1ccc(C(=O)Nc2ccn([C@H]3C[C@H](O)[C@@H](CO)O3)c(=O)n2)cc1` [N4-Anisoyl-2'-deoxycytidine] has a cell viability [1] of 106%.
`C[C@@H]1C[C@H]2[C@@H]3C[C@H](F)C4=CC(=O)C(Cl)=C[C@]4(C)[C@@]3(F)[C@@H](O)C[C@]2(C)[C@@]1(O)C(=O)CO` showed a cell viability (compound concentration: 3 uM) of 106%.
For `Cc1cn(C2OC(CO)C(O)C2O)c(=S)[nH]c1=O` (stereo unspecified) [5-Methyl-2-thiouridine], the cell viability [1] was 98.6%.
`O=c1cc(-c2ccc(O)c(O)c2)oc2cc(O[C@@H]3O[C@H](CO)[C@@H](O)[C@H](O)[C@H]3O)cc(O)c12` [Luteolin-7-glucoside] was tested, and the cell viability [1] was 93.3%.
For `COc1c(-c2ccc(O)c(O)c2)oc2cc(O)cc(O)c2c1=O` [Quercetin 3-methyl ether], the cell viability [1] was 93.6%.
With `Nc1ccc(S(=O)(=O)Nc2ccnn2-c2ccccc2)cc1` [Sulfaphenazole] the cell viability (compound concentration: 3 uM) was 116 ± 16%.
Compound `Nc1ccc(S(=O)(=O)Nc2ccnn2-c2ccccc2)cc1` has a cell viability (compound concentration: 3 uM) of 109%.
